# Cleaved PARP after 72 h of treatment

From a melanoma drug combination screen (doi:10.1371/journal.pone.0140310); values rounded.

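The test systems are human melanoma cell lines, treated with two drugs together for 72 h and then stained and imaged. Each value is the cleaved-PARP-positive fraction of nuclei relative to DMSO-treated wells, in %, so that 100 equals the control and higher values mean more apoptosis. Concentrations were fixed for each drug; these are the higher of two levels. No replicate spread is given; individual values may be noisy. Basal and induced levels differ widely between cell lines.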
This is part of the screen, not chosen by result.
A dash means that no value is listed here.

Compounds and concentrations:
dovitinib (500 nM): CN1CCN(c2ccc3nc(-c4c(N)c5c(F)cccc5[nH]c4=O)[nH]c3c2)CC1
NVP-TAE684 (400 nM): COc1cc(N2CCC(N3CCN(C)CC3)CC2)ccc1Nc1ncc(Cl)c(Nc2ccccc2S(=O)(=O)C(C)C)n1
lenalidomide (5000 nM): Nc1cccc2c1CN(C1CCC(=O)NC1=O)C2=O (stereo not shown)
ruxolitinib (5000 nM): N#CC[C@H](C1CCCC1)n1cc(-c2ncnc3[nH]ccc23)cn1
MK-2206 (2000 nM): NC1(c2ccc(-c3nc4ccn5c(=O)[nH]nc5c4cc3-c3ccccc3)cc2)CCC1
erlotinib (4000 nM): C#Cc1cccc(Nc2ncnc3cc(OCCOC)c(OCCOC)cc23)c1
lapatinib (4000 nM): CS(=O)(=O)CCNCc1ccc(-c2ccc3ncnc(Nc4ccc(OCc5cccc(F)c5)c(Cl)c4)c3c2)o1

Combination | SK-MEL-28 | A375 | 501mel | IST-MEL1 | LB2518-MEL | C32 | COLO 829 | SK-MEL-5 | A101D | RPMI-7951 | SK-MEL-30 | WM3526 | COLO 800 | WM115 | WM451Lu
dovitinib + MK-2206 | 178 | 77.7 | - | 31.9 | 403 | 64.5 | 208 | 472 | 339 | 372 | 270 | 349 | 191 | 447 | 135
lenalidomide + lapatinib | 54.0 | 21.3 | - | 75.2 | - | 238 | 170 | 197 | 172 | 104 | 37.4 | 122 | 159 | 122 | 35.2
ruxolitinib + NVP-TAE684 | 95.0 | 165 | 103 | 23.0 | 240 | 121 | 28.9 | 133 | 111 | 425 | 169 | 136 | 65.4 | 66.7 | 137
erlotinib + dovitinib | 360 | 238 | - | 181 | 242 | 19.0 | 216 | 283 | 89.4 | 87.2 | 155 | 345 | 135 | 242 | 190
lapatinib + erlotinib | 76.7 | 84.6 | - | 76.0 | 81.9 | 197 | 168 | 113 | 186 | 76.9 | 116 | 167 | 158 | 180 | 49.2
erlotinib + MK-2206 | 125 | 165 | - | 93.6 | 216 | 331 | 251 | 182 | 113 | 140 | 98.7 | 346 | 183 | 362 | 68.7
lapatinib + NVP-TAE684 | 117 | 202 | 81.1 | 171 | 130 | 193 | 136 | 381 | 234 | 188 | 241 | 504 | 309 | 32.9 | 110
lenalidomide + erlotinib | 61.2 | 78.8 | - | 55.3 | 78.5 | 213 | 61.2 | 49.5 | 185 | 138 | 50.2 | 154 | 186 | 171 | 35.4
dovitinib + lenalidomide | 180 | 157 | - | 71.7 | 379 | 115 | 189 | 431 | 80.3 | 179 | 119 | 179 | 44.5 | 163 | 65.7
ruxolitinib + dovitinib | 102 | 105 | - | 61.5 | 156 | 157 | 59.5 | 74.4 | 87.8 | 191 | 154 | 241 | 43.0 | 41.0 | 92.3
MK-2206 + lapatinib | 42.1 | 63.7 | - | 105 | 98.5 | 611 | 111 | 434 | 303 | 241 | 150 | 427 | 290 | 249 | 108
ruxolitinib + lapatinib | 84.5 | 64.5 | - | 73.8 | 119 | 16.5 | 159 | 138 | 223 | 470 | 137 | 188 | 119 | 362 | 66.0
lenalidomide + NVP-TAE684 | 180 | 108 | 285 | 94.9 | 69.8 | 110 | 78.7 | 127 | 43.2 | 82.3 | 38.5 | 128 | 105 | 121 | 131
NVP-TAE684 + erlotinib | 143 | 244 | 69.7 | 31.0 | 106 | 127 | 83.3 | 352 | 244 | 104 | 55.1 | 486 | 50.6 | 153 | 101
ruxolitinib + erlotinib | 47.9 | 29.3 | - | 77.0 | 128 | 53.2 | 99.7 | 197 | 45.8 | 93.2 | 104 | 226 | 96.3 | 232 | 123
MK-2206 + NVP-TAE684 | 196 | 66.1 | 146 | 347 | 211 | 138 | 116 | 199 | 871 | 187 | 223 | 325 | 27.1 | 289 | 198
NVP-TAE684 + dovitinib | 293 | 587 | 139 | 41.9 | 215 | 138 | 160 | 260 | 197 | 80.5 | 111 | 239 | 235 | 253 | 69.3
lenalidomide + MK-2206 | 185 | 72.6 | - | 115 | 153 | 312 | 91.0 | 58.4 | 124 | 95.2 | 121 | 158 | 95.8 | 130 | 36.8
ruxolitinib + MK-2206 | 32.6 | 50.9 | - | 66.9 | - | 33.3 | 116 | 99.7 | 132 | 293 | 44.6 | 106 | 61.4 | 240 | 69.2
ruxolitinib + lenalidomide | 41.2 | 96.4 | - | 74.6 | 141 | 55.7 | 90.9 | 218 | 69.0 | 198 | 92.6 | 106 | 71.3 | 35.5 | 66.3